PubChem BioAssay AID1259308, NCATS – 2017

- Aim: 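Genes whose loss raises luciferase production in HEK293 cells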 (primary screen)
- Cell system: human HEK293 embryonic kidney cells stably expressing firefly luciferase (HEK-CMV-Luc2-Hygro)
- Knock-down reagent: single siRNA against human genes, 0.8 pmol siRNA per well
- Duration: 72 h
- Detection: 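Reporter luminescence and viable-cell signal on separate replicate plates, given as percent of non-targeting control and median/MAD z-scores, plus per-cell luciferase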
- Direction: total luciferase, z-score: higher = more reporter protein produced
- Hit rule: 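Active when the median/MAD z-score for overall luciferase is greater than 3; a gene was taken forward for validation with new siRNAs if at least two of its three siRNAs passed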
- Meaning of the calls: active = raised luciferase; inactive = no rise
In all, the deposit lists about 59,000 reagents; this is a random part of them. Of all reagents, about 1,510 (2.6%) got an active call. 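Calls use total luciferase alone and ignore viability, so some active siRNAs may act by altering cell number.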 Unmarked entries are inactive. Reagents against one gene are numbered here. Not all columns of the deposit are shown. Reagent sequences are not shown.

CLDN9 #1 — total luciferase, z-score = -0.219
CLDN9 #2 — total luciferase, z-score = -1.34
CLDN9 #3 — total luciferase, z-score = 0.438
HIF1AN #1 — total luciferase, z-score = 0.588
HIF1AN #2 — total luciferase, z-score = 0.238
HIF1AN #3 — total luciferase, z-score = 3.15 (active)
CLCA4 #1 — total luciferase, z-score = 1.08
CLCA4 #2 — total luciferase, z-score = -1.13
CLCA4 #3 — total luciferase, z-score = -0.0493
CLASP1 #1 — total luciferase, z-score = 1.25
CLASP1 #2 — total luciferase, z-score = 0.515
CLASP1 #3 — total luciferase, z-score = 0.989

Ordered by “total luciferase, z-score” (highest first): 2 of the entries above.
CLDN9 #1 — total luciferase, z-score = -0.219
CLDN9 #2 — total luciferase, z-score = -1.34

Next entries:
PGD #1 — total luciferase, z-score = -0.686
PGD #2 — total luciferase, z-score = -1.05
PGD #3 — total luciferase, z-score = -0.612
XIRP1 #1 — total luciferase, z-score = 1.91
XIRP1 #2 — total luciferase, z-score = 2.82
XIRP1 #3 — total luciferase, z-score = 0.842
GRB7 #1 — total luciferase, z-score = -0.691
GRB7 #2 — total luciferase, z-score = 1.18
GRB7 #3 — total luciferase, z-score = -1.28
